Reference: paper PMC11088878
No constants are given. Whether binding was seen depends on the method and setting. Binding seen in cells or lysates may run through a third protein. For some assays here: Sequences can lack the tags named with a protein.

Protein sequences, listed by entry. Tags and fused reporters are not part of them.
UniProt P22147: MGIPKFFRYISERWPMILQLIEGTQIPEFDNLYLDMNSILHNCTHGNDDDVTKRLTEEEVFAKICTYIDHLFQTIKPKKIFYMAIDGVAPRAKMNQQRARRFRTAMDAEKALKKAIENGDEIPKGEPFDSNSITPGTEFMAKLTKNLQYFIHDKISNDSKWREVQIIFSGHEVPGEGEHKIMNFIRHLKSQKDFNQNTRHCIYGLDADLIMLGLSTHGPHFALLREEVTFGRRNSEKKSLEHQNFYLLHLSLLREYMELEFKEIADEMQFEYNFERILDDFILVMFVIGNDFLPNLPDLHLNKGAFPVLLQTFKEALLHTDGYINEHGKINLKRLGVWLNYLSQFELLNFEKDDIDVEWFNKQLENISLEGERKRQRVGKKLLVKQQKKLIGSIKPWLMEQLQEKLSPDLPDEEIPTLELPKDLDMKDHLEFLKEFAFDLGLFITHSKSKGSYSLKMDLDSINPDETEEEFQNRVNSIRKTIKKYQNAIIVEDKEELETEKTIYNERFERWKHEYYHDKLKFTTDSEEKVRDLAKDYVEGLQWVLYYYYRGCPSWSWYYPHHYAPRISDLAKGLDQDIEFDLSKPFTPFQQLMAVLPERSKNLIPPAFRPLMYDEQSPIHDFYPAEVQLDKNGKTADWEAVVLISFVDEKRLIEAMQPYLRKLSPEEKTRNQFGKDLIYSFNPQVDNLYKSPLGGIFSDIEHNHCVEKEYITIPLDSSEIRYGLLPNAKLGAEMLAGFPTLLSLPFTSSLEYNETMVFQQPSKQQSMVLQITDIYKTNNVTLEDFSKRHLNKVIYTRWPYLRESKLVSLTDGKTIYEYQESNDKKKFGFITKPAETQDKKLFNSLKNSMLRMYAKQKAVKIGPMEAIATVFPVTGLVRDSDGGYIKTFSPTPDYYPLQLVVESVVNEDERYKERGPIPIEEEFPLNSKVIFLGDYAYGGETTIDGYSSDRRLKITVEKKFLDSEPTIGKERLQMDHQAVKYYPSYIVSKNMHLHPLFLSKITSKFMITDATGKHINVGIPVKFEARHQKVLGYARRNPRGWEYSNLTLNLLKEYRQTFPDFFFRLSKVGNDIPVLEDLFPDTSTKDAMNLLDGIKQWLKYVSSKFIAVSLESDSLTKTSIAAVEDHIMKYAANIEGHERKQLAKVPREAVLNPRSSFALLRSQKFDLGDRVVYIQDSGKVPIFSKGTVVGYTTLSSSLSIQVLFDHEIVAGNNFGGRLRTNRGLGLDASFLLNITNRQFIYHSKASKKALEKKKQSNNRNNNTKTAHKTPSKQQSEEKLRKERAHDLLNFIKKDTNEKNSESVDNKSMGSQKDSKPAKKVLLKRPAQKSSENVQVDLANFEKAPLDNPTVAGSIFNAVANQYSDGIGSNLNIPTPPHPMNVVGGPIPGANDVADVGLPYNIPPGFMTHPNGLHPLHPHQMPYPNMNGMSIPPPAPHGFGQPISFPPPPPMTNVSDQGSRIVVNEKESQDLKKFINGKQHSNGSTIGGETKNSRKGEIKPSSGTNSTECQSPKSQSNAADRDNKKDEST

What was measured:
[1] = biological target: T1, Gcn20-GFP (S. cerevisiae) (UniProt P43535); assay: co-IP; 1 mg whole cell extract of exponentially growing yeast, pre-cleared with protein A resin, incubated 2 h at 4°C with anti-GFP antibodies covalently linked to sepharose beads; six washes with breaking buffer (30 mM HEPES-KOH pH 7.4, 50 mM KCl, 10% glycerol); immunoblot with antibodies against GFP, Gcn1, Gcn2, Gcn20, Pgk1
T1 sequence: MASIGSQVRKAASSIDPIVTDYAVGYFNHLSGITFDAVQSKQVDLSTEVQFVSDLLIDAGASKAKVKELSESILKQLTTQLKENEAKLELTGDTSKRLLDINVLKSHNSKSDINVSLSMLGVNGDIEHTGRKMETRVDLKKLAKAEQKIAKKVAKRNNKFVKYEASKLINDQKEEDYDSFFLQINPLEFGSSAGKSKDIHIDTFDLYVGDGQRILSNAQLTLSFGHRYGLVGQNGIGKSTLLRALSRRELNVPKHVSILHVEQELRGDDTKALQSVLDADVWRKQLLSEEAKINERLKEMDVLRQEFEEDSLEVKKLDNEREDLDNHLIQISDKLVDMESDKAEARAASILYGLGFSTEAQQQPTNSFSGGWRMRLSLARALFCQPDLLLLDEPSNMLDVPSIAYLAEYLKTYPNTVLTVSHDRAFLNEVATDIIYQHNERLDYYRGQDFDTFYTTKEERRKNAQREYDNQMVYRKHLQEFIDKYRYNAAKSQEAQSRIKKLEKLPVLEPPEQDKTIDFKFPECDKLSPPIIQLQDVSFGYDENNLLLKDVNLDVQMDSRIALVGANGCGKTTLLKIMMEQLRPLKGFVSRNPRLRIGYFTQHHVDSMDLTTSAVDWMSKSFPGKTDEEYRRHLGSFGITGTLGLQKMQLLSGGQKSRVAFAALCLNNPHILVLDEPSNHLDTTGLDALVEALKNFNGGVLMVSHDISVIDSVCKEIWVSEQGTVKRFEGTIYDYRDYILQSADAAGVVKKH

[2] = biological target: GFP-tagged Xrn1 (S. cerevisiae) (UniProt P22147); assay: as above

- binding [1]: no binding
- binding [2]: no binding
B1: Pgk1 (protein, UniProt P00560 1-416)
chain: MSLSSKLSVQDLDLKDKRVFIRVDFNVPLDGKKITSNQRIVAALPTIKYVLEHHPRYVVLASHLGRPNGERNEKYSLAPVAKELQSLLGKDVTFLNDCVGPEVEAAVKASAPGSVILLENLRYHIEEEGSRKVDGQKVKASKEDVQKFRHELSSLADVYINDAFGTAHRAHSSMVGFDLPQRAAGFLLEKELKYFGKALENPTRPFLAILGGAKVADKIQLIDNLLDKVDSIIIGGGMAFTFKKVLENTEIGDSIFDKAGAEIVPKLMEKAKAKGVEVVLPVDFIIADAFSADANTKTVTDKEGIPAGWQGLDNGPESRKLFAATVAKAKTIVWNGPPGVFEFEKFAAGTKALLDEVVKSSAAGNTVIIGGGDTATVAKKYGVTDKISHVSTGGGASLELLEGKELPGVAFLSEKK
